This is one part of the list. Residues, ends and D or L forms follow the SMILES beside them. *: point of attachment. Cbz = O=C(OCc1ccccc1)*
How the values were obtained:
Experiment in all cases: log2 fold change, soluble protein after heating vs DMSO (PISA); higher = thermal stabilisation; K562 cells, 10 uM, 30 min; active = over 0.2 and 3.5 SD of the protein, either way, in both replicates (recomputed)
[1] = compound: C#Cc1cccc(Nc2ncnc3cc(OCCOC)c(OCCOC)cc23)c1 [erlotinib]
How it was run: (§1)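 Quantification of soluble protein used TMTpro 16plex LC-MS/MS, with channel sums equalised. Samples were the supernatant after 21,000xg for 90 min of pooled aliquots from K562 cells (2×10^6 cells/mL) treated with 10 μM compound for 30 min, heated for 3 min over 48°C-58°C, and extracted in PBS with 0.5% NP-40 at 4°C. Values, from duplicates, describe thermal stability against control samples on a log2 fold-change scale.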

Amino acid sequences for entries named in this document (tags omitted). A change or cut given only in a name is not applied to a line headed by its entry.
UniProt O60830: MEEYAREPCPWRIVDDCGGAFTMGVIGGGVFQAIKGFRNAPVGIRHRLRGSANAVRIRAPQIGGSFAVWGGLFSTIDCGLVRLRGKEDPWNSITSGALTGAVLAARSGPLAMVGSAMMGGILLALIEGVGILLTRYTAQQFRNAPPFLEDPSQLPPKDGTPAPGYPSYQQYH
UniProt P31483: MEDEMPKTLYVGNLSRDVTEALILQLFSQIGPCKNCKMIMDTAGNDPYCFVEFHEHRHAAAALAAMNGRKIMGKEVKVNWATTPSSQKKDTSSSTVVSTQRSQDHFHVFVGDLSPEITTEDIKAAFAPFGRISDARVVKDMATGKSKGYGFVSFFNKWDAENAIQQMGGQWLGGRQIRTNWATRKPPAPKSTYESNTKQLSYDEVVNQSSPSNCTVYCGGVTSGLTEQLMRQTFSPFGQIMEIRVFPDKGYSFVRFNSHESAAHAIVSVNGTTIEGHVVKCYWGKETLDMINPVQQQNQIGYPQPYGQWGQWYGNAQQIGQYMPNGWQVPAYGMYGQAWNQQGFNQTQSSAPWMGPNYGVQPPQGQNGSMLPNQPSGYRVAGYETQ
UniProt Q9NWX6: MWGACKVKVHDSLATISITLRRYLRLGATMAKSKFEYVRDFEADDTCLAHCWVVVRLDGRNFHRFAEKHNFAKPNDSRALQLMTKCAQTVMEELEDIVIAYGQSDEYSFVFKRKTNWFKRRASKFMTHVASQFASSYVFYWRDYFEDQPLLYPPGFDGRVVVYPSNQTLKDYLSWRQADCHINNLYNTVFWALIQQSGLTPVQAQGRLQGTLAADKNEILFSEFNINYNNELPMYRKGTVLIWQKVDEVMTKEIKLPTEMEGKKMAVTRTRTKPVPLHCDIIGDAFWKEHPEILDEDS
UniProt Q9Y4C2: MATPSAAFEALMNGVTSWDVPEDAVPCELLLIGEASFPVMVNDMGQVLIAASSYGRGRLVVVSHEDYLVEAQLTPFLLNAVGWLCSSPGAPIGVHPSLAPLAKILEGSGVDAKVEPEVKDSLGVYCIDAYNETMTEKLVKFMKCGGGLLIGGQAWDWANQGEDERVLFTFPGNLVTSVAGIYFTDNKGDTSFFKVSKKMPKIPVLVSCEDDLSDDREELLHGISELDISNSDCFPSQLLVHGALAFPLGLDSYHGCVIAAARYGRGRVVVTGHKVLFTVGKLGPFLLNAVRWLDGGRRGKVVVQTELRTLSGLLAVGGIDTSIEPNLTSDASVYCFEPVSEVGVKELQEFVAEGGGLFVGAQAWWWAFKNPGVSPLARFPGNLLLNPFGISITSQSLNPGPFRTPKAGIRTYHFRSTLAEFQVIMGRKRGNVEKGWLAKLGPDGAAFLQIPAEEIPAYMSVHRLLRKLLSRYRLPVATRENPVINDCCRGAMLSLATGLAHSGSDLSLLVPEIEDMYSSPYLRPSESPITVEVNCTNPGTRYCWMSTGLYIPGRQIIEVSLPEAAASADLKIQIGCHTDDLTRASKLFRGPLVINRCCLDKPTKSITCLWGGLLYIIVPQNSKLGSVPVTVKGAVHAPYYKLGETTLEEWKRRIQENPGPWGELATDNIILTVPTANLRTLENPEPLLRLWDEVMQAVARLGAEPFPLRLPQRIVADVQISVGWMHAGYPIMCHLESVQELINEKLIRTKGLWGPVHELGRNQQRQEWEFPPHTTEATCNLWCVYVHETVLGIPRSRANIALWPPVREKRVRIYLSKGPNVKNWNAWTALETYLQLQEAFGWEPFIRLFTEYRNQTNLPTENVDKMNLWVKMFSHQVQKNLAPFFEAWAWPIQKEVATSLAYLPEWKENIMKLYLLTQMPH
UniProt Q9NYB0: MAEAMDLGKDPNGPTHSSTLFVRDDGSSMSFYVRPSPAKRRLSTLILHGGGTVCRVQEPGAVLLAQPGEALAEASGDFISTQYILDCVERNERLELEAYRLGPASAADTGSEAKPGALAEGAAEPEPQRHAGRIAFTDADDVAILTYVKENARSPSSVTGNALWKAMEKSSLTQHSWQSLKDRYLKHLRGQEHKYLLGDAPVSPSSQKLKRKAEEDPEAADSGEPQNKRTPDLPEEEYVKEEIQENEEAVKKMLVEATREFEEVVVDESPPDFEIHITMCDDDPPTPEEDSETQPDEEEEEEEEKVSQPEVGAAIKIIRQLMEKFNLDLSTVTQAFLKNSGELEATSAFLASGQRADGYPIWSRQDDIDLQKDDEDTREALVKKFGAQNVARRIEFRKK
UniProt P62380: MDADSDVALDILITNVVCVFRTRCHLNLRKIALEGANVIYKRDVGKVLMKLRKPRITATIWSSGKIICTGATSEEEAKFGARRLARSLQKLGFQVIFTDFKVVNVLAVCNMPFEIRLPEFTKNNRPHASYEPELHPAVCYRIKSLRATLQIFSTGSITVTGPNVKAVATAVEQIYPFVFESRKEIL
UniProt Q04726: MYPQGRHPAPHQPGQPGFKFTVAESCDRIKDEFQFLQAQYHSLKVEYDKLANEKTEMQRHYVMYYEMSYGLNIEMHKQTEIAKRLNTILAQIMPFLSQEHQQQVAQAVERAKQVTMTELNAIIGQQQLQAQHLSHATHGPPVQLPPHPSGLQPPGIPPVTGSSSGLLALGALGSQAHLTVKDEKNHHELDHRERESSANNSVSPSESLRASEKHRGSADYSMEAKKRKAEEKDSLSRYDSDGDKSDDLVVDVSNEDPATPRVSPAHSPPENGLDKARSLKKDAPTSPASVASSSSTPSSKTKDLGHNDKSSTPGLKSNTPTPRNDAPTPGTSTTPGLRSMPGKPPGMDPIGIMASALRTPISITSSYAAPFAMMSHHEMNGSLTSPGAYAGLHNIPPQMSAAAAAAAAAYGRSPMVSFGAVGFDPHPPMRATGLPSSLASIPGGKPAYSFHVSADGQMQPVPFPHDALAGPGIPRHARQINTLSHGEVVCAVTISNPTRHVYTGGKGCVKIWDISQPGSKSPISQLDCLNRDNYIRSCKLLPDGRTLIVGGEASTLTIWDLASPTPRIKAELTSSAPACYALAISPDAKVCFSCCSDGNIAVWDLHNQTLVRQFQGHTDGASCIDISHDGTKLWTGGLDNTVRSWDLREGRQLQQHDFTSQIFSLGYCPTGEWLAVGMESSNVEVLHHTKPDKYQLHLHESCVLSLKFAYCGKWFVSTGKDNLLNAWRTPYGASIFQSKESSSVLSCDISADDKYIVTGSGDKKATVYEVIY
UniProt Q9BV44: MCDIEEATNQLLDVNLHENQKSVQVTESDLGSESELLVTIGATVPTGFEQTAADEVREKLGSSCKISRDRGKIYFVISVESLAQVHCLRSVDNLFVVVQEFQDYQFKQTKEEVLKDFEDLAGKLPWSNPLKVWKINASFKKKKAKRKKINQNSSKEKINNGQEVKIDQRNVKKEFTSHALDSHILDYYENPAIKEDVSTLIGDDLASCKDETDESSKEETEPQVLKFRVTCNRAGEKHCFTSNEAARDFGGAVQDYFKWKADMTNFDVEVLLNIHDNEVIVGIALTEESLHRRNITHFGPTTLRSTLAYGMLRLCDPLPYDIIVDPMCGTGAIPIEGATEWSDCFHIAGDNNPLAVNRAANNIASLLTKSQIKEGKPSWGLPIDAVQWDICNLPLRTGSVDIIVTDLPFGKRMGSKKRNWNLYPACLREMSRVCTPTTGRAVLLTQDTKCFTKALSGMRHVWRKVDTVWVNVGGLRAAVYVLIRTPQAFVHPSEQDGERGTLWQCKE

[2] = compound: C/C(=N\NC(=O)C1=CC(=CC=C1)S(=O)(=O)N2CCOCC2)/C3=C(C=CC(=C3)Cl)O
How it was run: as §1

[3] = compound: C1=CC(=C(C=C1Cl)C2=NC3=NC=CN=C3C(=N2)NC4=CC=NC=C4)F
How it was run: as §1

[4] = compound: C1=CC(=CC=C1C2=NC3=C(N2)C=C(C=C3)C(=O)N)OC4=CC=C(C=C4)Cl
How it was run: as §1

[5] = compound: C1=CC2=C(C=CC(=C2)/C=C\3/C(=O)NC(=NCC4=CC=CS4)S3)N=C1
How it was run: as §1

[6] = compound: C1=CC2=NC=CN=C2C=C1/C=C/3\C(=O)NC(=O)S3
How it was run: as §1

[7] = compound: C1=CC=C(C=C1)C2=NC(=C(N2)C3=CC=NC=C3)C4=CC(=C(C=C4)Cl)O
How it was run: as §1

[8] = compound: C1=CC=C2C(=C1)C3=NNC4=CC=CC(=C43)C2=O
How it was run: as §1

[9] = compound: C1CCN(C1)C(=O)NC2=CC=CC(=C2)NC3=NC=C(C(=N3)NCCC4=CN=CN4)Br
How it was run: as §1

[10] = compound: C1CN(CCC1(CC2=CC=C(C=C2)Cl)N)C3=NC=NC4=C3C=CN4
How it was run: as §1

[11] = compound: C1COCCN1CCN2C3=CC=CC=C3N=C2NC(=O)C4=CC(=CC=C4)[N+](=O)[O-] [IRAK-1-4 Inhibitor I]
How it was run: as §1

[12] = compound: C=CC(=O)N1CCC[C@@H](n2nc(-c3ccc(Oc4ccccc4)cc3)c3c(N)ncnc32)C1 [ibrutinib]
How it was run: as §1

[13] = compound: CC(=O)c1cnc2ccc(-c3cc(Cl)c(O)c(Cl)c3)nc2c1N[C@H]1CC[C@H](CN(C)C)CC1
How it was run: as §1

[14] = compound: CC(C)(C)Cn1c(N)nc2ccc(-c3[nH]c(C(C)(C)C)nc3-c3ccc(F)cc3)nc21 [ralimetinib]
How it was run: as §1

[15] = compound: CC(C)(O)CC(=O)NCCn1ccc2ncnc(Nc3ccc(Oc4cccc(C(F)(F)F)c4)c(Cl)c3)c21
How it was run: as §1

[16] = compound: CC(C)C1=C2N=C(C=C(N2N=C1)NCC3=CC=CC=C3)NCCCCCCN
How it was run: as §1

[17] = compound: CC(C)C[C@@H](C=O)NC(=O)[C@H](CC(C)C)NC(=O)[C@H](CC(C)C)NC(=O)OCc1ccccc1
How it was run: as §1

[18] = compound: CC(C)N(C[C@H]1O[C@@H](n2cnc3c(N)ncnc32)[C@H](O)[C@@H]1O)[C@H]1C[C@@H](CCc2nc3cc(C(C)(C)C)ccc3[nH]2)C1 [pinometostat]
How it was run: as §1

[19] = compound: CC1=C(C(CC(=O)N1)C2=CC=C(C=C2)C(F)(F)F)C(=O)NC3=C(C=C4C(=C3)C=NN4)F
How it was run: as §1

[20] = compound: CC1=C(C2=C(C=C1)C(=O)C3=CC=CC=C3N2CCCN)C
How it was run: as §1

Target	log2 fold change [1]	log2 fold change [2]	log2 fold change [3]	log2 fold change [4]	log2 fold change [5]	log2 fold change [6]	log2 fold change [7]	log2 fold change [8]	log2 fold change [9]	log2 fold change [10]	log2 fold change [11]	log2 fold change [12]	log2 fold change [13]	log2 fold change [14]	log2 fold change [15]	log2 fold change [16]	log2 fold change [17]	log2 fold change [18]	log2 fold change [19]	log2 fold change [20]
TIMM17B (UniProt O60830)	inactive: -0.023	inactive: -0.085	inactive: -0.007	inactive: -0.012	inactive: -0.016	inactive: 0.042	inactive: -0.061	inactive: -0.027	inactive: 0.083	inactive: 0.097	inactive: 0.117	inactive: 0.034	inactive: 0.006	inactive: -0.035	inactive: 0.023	inactive: 0.041	inactive: 0.023	inactive: 0.057	inactive: 0.009	inactive: -0.173
TIA1 (UniProt P31483)	inactive: 0.086	inactive: 0.003	inactive: -0.073	inactive: 0.038	inactive: 0.028	inactive: -0.032	inactive: -0.057	inactive: -0.034	inactive: -0.002	inactive: -0.03	inactive: 0.096	inactive: 0.032	inactive: -0.019	inactive: -0.028	inactive: 0.079	inactive: 0.038	inactive: -0.033	inactive: -0.024	inactive: 0.017	inactive: 0.172
THG1L (UniProt Q9NWX6)	inactive: -0.004	inactive: 0.012	inactive: 0.016	inactive: 0.012	inactive: 0.026	inactive: 0.061	inactive: -0.008	inactive: 0.01	inactive: 0.004	inactive: 0.021	inactive: -0.014	inactive: -0.021	inactive: 0.019	inactive: -0.079	inactive: 0.005	inactive: 0.026	inactive: -0.05	inactive: -0.053	inactive: -0.007	inactive: -0.022
TCAF1 (UniProt Q9Y4C2)	inactive: 0.029	inactive: 0.076	inactive: -0.036	inactive: 0.027	inactive: 0.107	inactive: 0.004	inactive: 0.027	inactive: 0.037	inactive: 0	inactive: -0.002	inactive: -0.035	inactive: 0.026	inactive: -0.04	inactive: 0.09	inactive: -0.085	inactive: -0.085	inactive: 0.077	inactive: 0.07	inactive: 0.008	inactive: 0.018
TERF2IP (UniProt Q9NYB0)	inactive: -0.046	inactive: 0	inactive: -0.016	inactive: -0.003	inactive: 0.022	inactive: 0.049	inactive: -0.038	inactive: -0.074	inactive: -0.047	inactive: -0.006	inactive: -0.023	inactive: -0.009	inactive: -0.151	inactive: 0.038	inactive: 0.034	inactive: -0.147	inactive: 0.058	inactive: 0.024		active: -0.33
TBPL1 (UniProt P62380)	inactive: -0.041	inactive: 0.172	inactive: 0.138	inactive: 0.056	inactive: 0.027	inactive: -0.043	inactive: 0.094	inactive: 0.024	inactive: -0.033	inactive: 0.047	inactive: 0.035	inactive: 0	inactive: 0.027	inactive: -0.015	inactive: -0.061	inactive: 0.028	inactive: -0.106	inactive: -0.066	inactive: -0.01	inactive: -0.123
TLE3 isoform 4 (UniProt Q04726)	inactive: 0.039	inactive: -0.001	inactive: 0.071	inactive: 0.007	inactive: 0.028	inactive: -0.001	inactive: 0.046	inactive: -0.01	inactive: -0.011	inactive: 0.038	inactive: 0.002	inactive: 0.022	inactive: 0.008	inactive: -0.03	inactive: -0.057	inactive: 0.083	inactive: -0.054	inactive: -0.027	inactive: 0.056	inactive: 0.026
THUMPD3 (UniProt Q9BV44)	inactive: -0.001	inactive: 0.036	inactive: 0.072	inactive: 0.005	inactive: 0.029	inactive: 0.016	inactive: 0.039	inactive: 0.006	inactive: -0.059	inactive: 0.044	inactive: 0.024	inactive: -0.007	inactive: -0.023	inactive: -0.011	inactive: -0.045	inactive: -0.018	inactive: -0.025	inactive: -0.021	inactive: 0.007	inactive: 0.101

— the supplement of paper PMC10849652
